The other results are listed elsewhere or left out.
What was measured:
Assay in all cases: glycan array binding signal (z-score within array); higher = stronger binding
Conditions in all cases: glycan notation: IUPAC condensed, linker removed
[1] = molecular target: Neu5Ac(a2-3)Gal(b1-3)[Neu5Ac(a2-6)]GlcNAc(b1-3)[Fuc(a1-3)[Gal(b1-4)]GlcNAc(b1-6)]Gal(b1-4)Glc
Summary of the method: (§1)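 From the Consortium for Functional Glycomics database, 3228 arrays were curated, keeping only those whose protein sequence was available. Binding is given as a within-array Z-score averaged across arrays sharing a protein sequence and across linkers. Negative Z-scores can be read as non-binding.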

[2] = molecular target: Neu5Ac(a2-3)Gal(b1-3)]Neu5Ac(a2-3)Gal(b1-4)]GlcNAc
Summary of the method: as §1

Neu5Ac(a2-3)Gal(b1-4)Glc = molecular target: Neu5Ac(a2-3)Gal(b1-4)Glc
Summary of the method: as §1

[3] = molecular target: Neu5Ac(a2-3)Gal(b1-4)GlcNAc
Summary of the method: as §1

[4] = molecular target: Neu5Ac(a2-3)Gal(b1-4)GlcNAc(b1-2)Man
Summary of the method: as §1

[5] = molecular target: Neu5Ac(a2-3)Gal(b1-4)GlcNAc(b1-2)Man(a1-3)[GlcNAc(b1-2)Man(b1-4)GlcNAc(b1-2)Man(a1-6)]Man(b1-4)GlcNAc(b1-4)GlcNAc
Summary of the method: as §1

[6] = molecular target: Neu5Ac(a2-3)Gal(b1-4)GlcNAc(b1-2)Man(a1-3)[GlcNAc(b1-4)][Neu5Ac(a2-3)Gal(b1-4)GlcNAc(b1-2)Man(a1-6)]Man(b1-4)GlcNAc(b1-4)GlcNAc
Summary of the method: as §1

[7] = molecular target: Neu5Ac(a2-3)Gal(b1-4)GlcNAc(b1-2)Man(a1-3)[Neu5Ac(a2-3)Gal(b1-4)GlcNAc(b1-2)Man(a1-6)]Man(b1-4)GlcNAc(b1-4)GlcNAc
Summary of the method: as §1

[8] = molecular target: Neu5Ac(a2-3)Gal(b1-4)GlcNAc(b1-2)Man(a1-3)[Neu5Ac(a2-3)Gal(b1-4)GlcNAc(b1-2)Man(a1-6)]Man(b1-4)GlcNAc(b1-4)[Fuc(a1-6)]GlcNAc
Summary of the method: as §1

[9] = molecular target: Neu5Ac(a2-3)Gal(b1-4)GlcNAc(b1-2)Man(a1-3)[Neu5Ac(a2-6)Gal(b1-4)GlcNAc(b1-2)Man(a1-6)]Man(b1-4)GlcNAc(b1-4)GlcNAc
Summary of the method: as §1

[10] = molecular target: Neu5Ac(a2-3)Gal(b1-4)GlcNAc(b1-2)[Neu5Ac(a2-3)Gal(b1-4)GlcNAc(b1-4)]Man(a1-3)[GlcNAc(b1-4)][Neu5Ac(a2-3)Gal(b1-4)GlcNAc(b1-2)[Neu5Ac(a2-3)Gal(b1-4)GlcNAc(b1-6)]Man(a1-6)]Man(b1-4)GlcNAc(b1-4)GlcNAc
Summary of the method: as §1

[11] = molecular target: Neu5Ac(a2-3)Gal(b1-4)GlcNAc(b1-2)[Neu5Ac(a2-3)Gal(b1-4)GlcNAc(b1-4)]Man(a1-3)[GlcNAc(b1-4)][Neu5Ac(a2-3)Gal(b1-4)GlcNAc(b1-4)Man(a1-6)]Man(b1-4)GlcNAc(b1-4)GlcNAc
Summary of the method: as §1

[12] = molecular target: Neu5Ac(a2-3)Gal(b1-4)GlcNAc(b1-2)[Neu5Ac(a2-3)Gal(b1-4)GlcNAc(b1-6)]Man(a1-6)[Neu5Ac(a2-3)Gal(b1-4)GlcNAc(b1-2)Man(a1-3)][GlcNAc(b1-4)]Man(b1-4)GlcNAc(b1-4)GlcNAc
Summary of the method: as §1

[13] = molecular target: Neu5Ac(a2-3)Gal(b1-4)GlcNAc(b1-3)Gal
Summary of the method: as §1

[14] = molecular target: Neu5Ac(a2-3)Gal(b1-4)GlcNAc(b1-3)Gal(b1-3)GlcNAc
Summary of the method: as §1

[15] = molecular target: Neu5Ac(a2-3)Gal(b1-4)GlcNAc(b1-3)Gal(b1-4)GlcNAc
Summary of the method: as §1

[16] = molecular target: Neu5Ac(a2-3)Gal(b1-4)GlcNAc(b1-3)Gal(b1-4)GlcNAc(b1-2)Man(a1-3)[Neu5Ac(a2-3)Gal(b1-4)GlcNAc(b1-3)Gal(b1-4)GlcNAc(b1-2)Man(a1-6)]Man(b1-4)GlcNAc(b1-4)GlcNAc
Summary of the method: as §1

[17] = molecular target: Neu5Ac(a2-3)Gal(b1-4)GlcNAc(b1-3)Gal(b1-4)GlcNAc(b1-3)Gal(b1-4)GlcNAc
Summary of the method: as §1

[18] = molecular target: Neu5Ac(a2-3)Gal(b1-4)GlcNAc(b1-3)Gal(b1-4)GlcNAc(b1-3)Gal(b1-4)GlcNAc(b1-2)Man(a1-3)[Neu5Ac(a2-3)Gal(b1-4)GlcNAc(b1-3)Gal(b1-4)GlcNAc(b1-3)Gal(b1-4)GlcNAc(b1-2)Man(a1-6)]GalNAc
Summary of the method: as §1

[19] = molecular target: Neu5Ac(a2-3)Gal(b1-4)GlcNAc(b1-3)Gal(b1-4)GlcNAc(b1-3)GalNAc
Summary of the method: as §1

[20] = molecular target: Neu5Ac(a2-3)Gal(b1-4)GlcNAc(b1-3)Gal(b1-4)GlcNAc(b1-3)[Neu5Ac(a2-3)Gal(b1-4)GlcNAc(b1-3)Gal(b1-4)GlcNAc(b1-6)]GalNAc
Summary of the method: as §1

[21] = molecular target: Neu5Ac(a2-3)Gal(b1-4)GlcNAc(b1-3)Gal(b1-4)GlcNAc(b1-6)[Gal(b1-3)]GalNAc
Summary of the method: as §1

[22] = molecular target: Neu5Ac(a2-3)Gal(b1-4)GlcNAc(b1-3)Gal(b1-4)[Fuc(a1-3)]GlcNAc
Summary of the method: as §1

[23] = molecular target: Neu5Ac(a2-3)Gal(b1-4)GlcNAc(b1-3)GalNAc
Summary of the method: as §1

[24] = molecular target: Neu5Ac(a2-3)Gal(b1-4)GlcNAc(b1-3)[Neu5Ac(a2-3)Gal(b1-4)GlcNAc(b1-6)]GalNAc
Summary of the method: as §1

[25] = molecular target: Neu5Ac(a2-3)Gal(b1-4)GlcNAc(b1-6)GalNAc
Summary of the method: as §1

[26] = molecular target: Neu5Ac(a2-3)Gal(b1-4)GlcNAc(b1-6)[Gal(b1-3)]GalNAc
Summary of the method: as §1

[27] = molecular target: Neu5Ac(a2-3)Gal(b1-4)GlcNAc(b1-6)[Neu5Ac(a2-3)Gal(b1-3)]GalNAc
Summary of the method: as §1

[28] = molecular target: Neu5Ac(a2-3)Gal(b1-4)GlcNAc6S
Summary of the method: as §1

[29] = molecular target: Neu5Ac(a2-3)Gal(b1-4)[Fuc(a1-3)]GlcNAc
Summary of the method: as §1

[30] = molecular target: Neu5Ac(a2-3)Gal(b1-4)[Fuc(a1-3)]GlcNAc(b1-2)Man
Summary of the method: as §1

[31] = molecular target: Neu5Ac(a2-3)Gal(b1-4)[Fuc(a1-3)]GlcNAc(b1-3)Gal
Summary of the method: as §1

[32] = molecular target: Neu5Ac(a2-3)Gal(b1-4)[Fuc(a1-3)]GlcNAc(b1-3)Gal(b1-4)GlcNAc
Summary of the method: as §1

[33] = molecular target: Neu5Ac(a2-3)Gal(b1-4)[Fuc(a1-3)]GlcNAc(b1-3)Gal(b1-4)[Fuc(a1-3)]GlcNAc(b1-3)Gal(b1-4)[Fuc(a1-3)]GlcNAc
Summary of the method: as §1

[34] = molecular target: Neu5Ac(a2-3)Gal(b1-4)[Fuc(a1-3)]GlcNAc(b1-3)GalNAc
Summary of the method: as §1

[35] = molecular target: Neu5Ac(a2-3)Gal(b1-4)[Fuc(a1-3)]GlcNAc(b1-6)[Gal(b1-3)]GalNAc
Summary of the method: as §1

[36] = molecular target: Neu5Ac(a2-3)Gal(b1-4)[Fuc(a1-3)]GlcNAc(b1-6)[Neu5Ac(a2-3)Gal(b1-3)]GalNAc
Summary of the method: as §1

[37] = molecular target: Neu5Ac(a2-3)Gal(b1-4)[Fuc(a1-3)]GlcNAc6S
Summary of the method: as §1

[38] = molecular target: Neu5Ac(a2-3)Gal6S(b1-4)GlcNAc
Summary of the method: as §1

[39] = molecular target: Neu5Ac(a2-3)Gal6S(b1-4)[Fuc(a1-3)]GlcNAc
Summary of the method: as §1

Neu5Ac(a2-3)GalNAc = molecular target: Neu5Ac(a2-3)GalNAc
Summary of the method: as §1

[40] = molecular target: Neu5Ac(a2-3)GalNAc(b1-4)GlcNAc
Summary of the method: as §1

[41] = molecular target: Neu5Ac(a2-3)[GalNAc(b1-4)]Gal(b1-4)Glc
Summary of the method: as §1

[42] = molecular target: Neu5Ac(a2-3)[GalNAc(b1-4)]Gal(b1-4)GlcNAc
Summary of the method: as §1

[43] = molecular target: Neu5Ac(a2-3)[GalNAc(b1-4)]Gal(b1-4)GlcNAc(b1-3)GalNAc
Summary of the method: as §1

B1: GST Gap3 (Streptococcus parasanguinis) (protein)
chain: MTKQLISEIYWNEIRKGENYLYGSQIKFQEDLVNFYNPQLASGKPIVTFKSRTNYQGDRHSPDLPILIQGNRYLLEYQIDAVPANSFFLQLDFFNRQAEQIESIVLRNSGESFIFPKDTFTYTLTLMSAGCQSVTYQKFMIYDINDEEKKNHIVENRYLRELLPKDLDLVKNLIEYI
glycan array binding signal (z-score) [1]: -0.549
glycan array binding signal (z-score) [2]: -0.563
glycan array binding signal (z-score) (Neu5Ac(a2-3)Gal(b1-4)Glc): -0.413
glycan array binding signal (z-score) [3]: -0.407
glycan array binding signal (z-score) [4]: 0.863
glycan array binding signal (z-score) [5]: -0.295
glycan array binding signal (z-score) [6]: -0.195
glycan array binding signal (z-score) [7]: 0.814
glycan array binding signal (z-score) [8]: 2.2
glycan array binding signal (z-score) [9]: -0.216
glycan array binding signal (z-score) [10]: -0.36
glycan array binding signal (z-score) [11]: 0.076
glycan array binding signal (z-score) [12]: -0.604
glycan array binding signal (z-score) [13]: -0.438
glycan array binding signal (z-score) [14]: -0.489
glycan array binding signal (z-score) [15]: -0.414
glycan array binding signal (z-score) [16]: -0.47
glycan array binding signal (z-score) [17]: -0.252
glycan array binding signal (z-score) [18]: 0.599
glycan array binding signal (z-score) [19]: -0.54
glycan array binding signal (z-score) [20]: 0.22
glycan array binding signal (z-score) [21]: 0.196
glycan array binding signal (z-score) [22]: -0.478
glycan array binding signal (z-score) [23]: -0.631
glycan array binding signal (z-score) [24]: -0.511
glycan array binding signal (z-score) [25]: -0.38
glycan array binding signal (z-score) [26]: -0.323
glycan array binding signal (z-score) [27]: -0.315
glycan array binding signal (z-score) [28]: 0.679
glycan array binding signal (z-score) [29]: -0.196
glycan array binding signal (z-score) [30]: -0.236
glycan array binding signal (z-score) [31]: -0.462
glycan array binding signal (z-score) [32]: 0.582
glycan array binding signal (z-score) [33]: 0.048
glycan array binding signal (z-score) [34]: 1.95
glycan array binding signal (z-score) [35]: 1.24
glycan array binding signal (z-score) [36]: 3.62
glycan array binding signal (z-score) [37]: -0.239
glycan array binding signal (z-score) [38]: -0.257
glycan array binding signal (z-score) [39]: 0.06
glycan array binding signal (z-score) (Neu5Ac(a2-3)GalNAc): -0.101
glycan array binding signal (z-score) [40]: -0.022
glycan array binding signal (z-score) [41]: 1.37
glycan array binding signal (z-score) [42]: 0.149
glycan array binding signal (z-score) [43]: 0.067

— the supplement of paper PMC8728848
